PubChem BioAssay AID686943 | Drosophila RNAi Screening Center, 2013

- Screen: 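Search across the genome for regulators of signalling from receptor tyrosine kinase to ERK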 (primary screen)
- Cell system: Drosophila S2R+ haemocyte-like cells expressing YFP-tagged ERK (Rolled)
- Knock-down reagent: long dsRNA against Drosophila genes
- Challenge: insulin stimulation versus unstimulated cells; dose and duration not given
- Measured: 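Antibody staining for doubly phosphorylated ERK divided by ERK-YFP signal, as plate z-scores, in insulin-treated and untreated cells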
- Scale: replicate 1, z-score of dpERK with insulin and replicate 2, z-score of dpERK with insulin: higher = more active ERK per ERK-YFP after insulin; replicate 1, z-score of dpERK under basal conditions: higher = more basal active ERK per ERK-YFP; replicate 1, z-score of ERK-YFP with insulin: higher = more YFP-tagged ERK signal
The deposit covers about 23,000 reagents; this is an unselected part of those that have a named target and a result. 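Extra replicates exist only for a retested subset of genes; insulin dose and duration not given; both raised and lowered dpERK matter.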 Names joined by + are all predicted targets of the reagent. Reagent sequences are not shown. The record does not give: the amount of reagent, the time to read-out.

gene	amplicon	replicate 1, z-score of dpERK with insulin	replicate 2, z-score of dpERK with insulin	replicate 1, z-score of dpERK under basal conditions	replicate 1, z-score of ERK-YFP with insulin
CG9815	DRSC04567	0.93	0.61	0.2	-1.45
CG33502 + CG32857 + CG32500	DRSC20817	0.61	-0.16	0.45	0.13
CG33502 + CG32857 + CG32500	DRSC21038	0.43	-0.33	-0.48	-0.12
CG33477	DRSC22934	0.27	0.17	1.03	0.09
Mur89F	DRSC15544	0.46	0.41	1.69	-1.84
hydra	DRSC20497	-0.44	-0.17	-0.78	0.31
Vps16A	DRSC16422	0.92	0.19	1.31	-0.89
CG34136	DRSC01833	1.02	0.39	-0.46	-0.9
GstE2	DRSC06672	0.12	-0.12	-0.02	0.34
CG11127	DRSC06043	-1	-0.4	-1.29	0.86
CG13796 + CG31904	DRSC22161	-0.6	-0.02	-0.56	-0.37
TfIIA-S-2	DRSC17791	-0.28	-1.01	0.39	0.6
Hpr1	DRSC12296	1.07	0.38	2.52	-3.49

Look-ups from the list.
Entry of Mur89F [DRSC15544] under “replicate 1, z-score of ERK-YFP with insulin”: -1.84
hydra [DRSC20497], replicate 1, z-score of dpERK with insulin: -0.44

Additional records follow:
gene	amplicon	replicate 1, z-score of dpERK with insulin	replicate 2, z-score of dpERK with insulin	replicate 1, z-score of dpERK under basal conditions	replicate 1, z-score of ERK-YFP with insulin
ics	DRSC01878	-0.34	0.02	-0.6	-0.02
CG7848	DRSC07050	-0.52	0.29	0.45	0.61
stumps	DRSC13045	-0.09	0.1	-0.13	0.09
stumps	DRSC15332	-2.76	-0.03	1.54	0.59
stumps	DRSC17073	0.7	-0.32	0.49	0.44
CG31041	DRSC13951	-0.04	0.31	-1.05	-0.25
Rpn6	DRSC07541	-2.77	-2.93	-2.91	-2.66
CG42404	DRSC15558	-1.1	-1.81	0.89	0.54
Hmt4-20	DRSC18482	-1.29	-0.94	-0.45	0.43
LysB	DRSC08673	0.4	-0.14	-0.38	0.02
CG18449	DRSC06754	-0.07	0.32	0.42	0.45
INPP5E	DRSC09723	0.95	0.37	2	-0.19
Rh2	DRSC16821	0.68	-1.16	0.58	-0.58
Marf1	DRSC03747	0.11	0.88	0.5	0.8
Marf1	DRSC03774	-0.2	-0.88	-0.41	-0.99
Ugt36D1	DRSC02600	-1.2	-0.37	-0.13	0.38
CG34227	DRSC06788	-0.31	-0.68	0.31	0.58
CG34227	DRSC07034	-0.25	0.27	0.07	-0.07
CG14174	DRSC10175	0.43	0.94	0.83	0.55
CG9269	DRSC16465	0.58	0.21	0.91	0.19
sw	DRSC20388	0.7	-0.56	0.23	0.39
CG15767	DRSC18073	0.94	0.02	-0.87	-0.48
CG4293	DRSC18557	-0.97	-0.18	1.01	0.35
CG12239	DRSC17832	-0.14	-0.17	-1.56	-1.15
CG32668	DRSC18879	1.08	0.34	1.71	-0.19
TwdlZ	DRSC19154	-0.1	-0.15	-0.03	0.31
